61 molecules from PubChem BioAssay AID493014 (National Center for Advancing Translational Sciences (NCATS), 2011) can be followed below.

The other results are listed elsewhere or left out. Further columns of the screen follow, without active or inactive calls. Compounds called inactive in the main read-out are mostly missing here. The note in brackets gives the kind of curve behind each potency; many fits are weak.

The assay in a line: qHTS Assay to Find Inhibitors of Chronic Active B-Cell Receptor Signaling. To be noted: ABC-DLBCL IkBa-CBG/CBR reporter, luminescence ratio (green luciferase fused to IkBa over red control in TMD8 lymphoma cells), 4 h. The method in brief:
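Doxycycline induced both beetle luciferases in TMD8 lymphoma cells; IKK-driven degradation limits the IkappaBalpha-fused green signal, while red luminescence normalises for cell number and nonspecific effects. Compounds tested up to 46 uM, 4 hrs.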

The mark [1] stands for this setting: measured here: CBR red luminescence, cell number.
Where [2] appears, read: measured here: IkBa-CBG green luminescence.

Consider `CCCCn1c(-c2ccccc2C)nc2cc3[nH]c(=O)c(C(C)C)nc3cc21`, for which the concentration at half-maximal activity (AC50) was 14.1 µM [falling, partial curve] under setting [1] and 10 µM [rising, partial curve, poor fit] under setting [2]. `CC(C)(C)c1cc(N)n2nc(C(C)(C)C)cc2n1`: the half-maximal activity concentration (AC50) under setting [1] is 1 µM [rising, full curve]. As to `CCC1(CC)NC(=O)N(CC(=O)N2N=C(c3ccc(Cl)cc3)CC2c2ccco2)C1=O` (stereo unspecified), the AC50 is 1 µM [rising, full curve, poor fit] under setting [1] and 10 µM [falling, partial curve, poor fit] under setting [2]. `CCc1ccc(Sc2cc(C(=O)NCc3ccccc3OC)c3ccccc3n2)cc1`: the AC50 under setting [1] was 3.98 µM [rising, partial curve, poor fit]. Same read-out and setting: under `Oc1nc(Nc2ccc(F)cc2)sc1/C=C1\C=Nc2ccccc21` stands 10 µM [falling, partial curve, poor fit]; under `Cc1cc(=O)n2[nH]c(SCc3ccccc3Cl)nc2n1`, 10 µM [falling, partial curve]; under `CCCCn1c(N)c(N(CC(C)C)C(=O)C2CC(=O)N(c3ccc(C)cc3)C2)c(=O)[nH]c1=O` (stereo unspecified), 32.6 µM [falling, single point]. Same read-out and setting: the same measure for `O=C(CC(c1ccccc1)(c1ccccc1)c1ccccc1)N[C@@H](Cc1ccccc1)C(=O)O`: 1.26 µM [falling, full curve, poor fit]; for `Cc1ccccc1Cn1c(CN2CCN(C(=O)c3ccco3)CC2)nc2c1c(=O)n(C)c(=O)n2C`: 25.9 µM [rising, single point]; for `CC(Sc1nnc(N)s1)C(=O)Nc1ccc(N2CCOCC2)cc1` (stereo unspecified): 23.1 µM [rising, single point].

For the molecule `c1ccc(SCc2nc(-c3ccccn3)no2)cc1`, the AC50 under setting [1] was 0.731 µM [falling, full curve, poor fit]. For `CC(C)C[C@H](NC(=O)N1CCn2c1nc1ccccc12)C(=O)N[C@@H](C(=O)O)c1ccccc1`, the AC50 under setting [1] was 3.16 µM [rising, full curve, poor fit]. For `COC(=O)CNc1c(-c2ccccc2)nc2ccc(Br)cn12`, under setting [1], the AC50 was 4.61 µM [falling, partial curve]. Still for that read-out and setting: the same measure for `CC(C)(C)c1ccc(C(=O)OCCNC(=O)c2c(Cl)nc3ccccn23)cc1`: 1.46 µM [falling, partial curve, poor fit]. Consider `CCN(c1ccccc1)S(=O)(=O)c1cc(C(=O)Nc2ccc(F)c(F)c2)ccc1F`, for which the concentration at half-maximal activity (AC50) is 29.1 µM [falling, single point] under setting [1] and 6.51 µM [rising, partial curve] under setting [2].

Take `O=C(Nc1ccc(Br)cc1)c1ccc(F)c(S(=O)(=O)NCc2cccs2)c1`: under setting [1], the concentration at half-maximal activity (AC50) was 16.4 µM [falling, partial curve].

As to `CCCCCNC(=O)c1cccnc1SCC(=O)Nc1ccccc1OC`, under setting [2], the concentration at half-maximal activity (AC50) was 25.9 µM [falling, partial curve, poor fit].

Consider `CC(=O)N1c2c(cc(Br)cc2S(=O)(=O)N2CCOCC2)CC1C` (stereo unspecified), for which the concentration at half-maximal activity (AC50) under setting [1] was 29.1 µM [rising, single point]. As for `O=C(CSc1nnc(-c2ccccn2)o1)Nc1ccccc1C(F)(F)F`, under setting [1], the AC50 was 25.1 µM [falling, single point]. Same read-out and setting: under `O=C(CCC(=O)Nc1ccccc1)NNC(=O)COc1ccccc1` stands 5.8 µM [rising, full curve]; under `CC(=O)Nc1cccc(C(=O)N2CCN(S(=O)(=O)Cc3ccccc3)CC2)c1`, 0.0184 µM [falling, full curve, poor fit]. Still for that read-out and setting: under `COc1ccccc1N1CCN(C(=O)c2cccc(S(=O)(=O)N3CCCCCC3)c2)CC1` stands 2.06 µM [rising, partial curve, poor fit].

Consider `COc1nc(Nc2ccc([N+](=O)[O-])cc2)nc(NC(C)C)n1`, for which the AC50 under setting [2] is 4.61 µM [rising, partial curve, poor fit]. As for `N=c1sccn1CC(=O)Nc1ccc([N+](=O)[O-])cc1Cl`, under setting [1], the AC50 was 35.5 µM [falling, single point].

Take `Cc1ccc2c(CC(=O)Nc3sccc3C(N)=O)coc2c1`: under setting [1], the AC50 is 0.447 µM [falling, full curve, poor fit]. The same measure, in the same setting: the same measure for `O=C(Nc1nccs1)c1ccc(-c2ccc([N+](=O)[O-])cc2)o1`: 8.91 µM [falling, partial curve, poor fit]. On to `CN[C@H]1CCc2cc(OC)c(OC)c(OC)c2-c2ccc(N(C)CC(OC)OC)c(=O)cc21`, for which the AC50 is, setting by setting: under setting [1], 28.2 µM [rising, single point]; under setting [2], 17.8 µM [falling, partial curve]. In the case of `CC1CC(C)CN(CCCNC(=O)c2ccc3c(c2)ncn3C2CCCC2)C1` (stereo unspecified), under setting [1], the AC50 is 12.6 µM [rising, partial curve, poor fit].

`O=C(Nc1nc(-c2cc(F)ccc2F)cs1)c1cccc(N2C(=O)CCC2=O)c1`: the half-maximal activity concentration (AC50) under setting [1] was 18.4 µM [falling, partial curve, poor fit].

Turning to `COc1ccc(/C=N\NC(=O)c2ccccc2Br)cc1COc1c(F)c(F)cc(F)c1F`, under setting [1], the AC50 is 17.8 µM [falling, single point]. On the same count and under the same terms, under `Cc1cc(N/N=C/c2c(O)ccc3ccccc23)nc(-c2ccccc2O)n1` stands 0.651 µM [falling, partial curve, poor fit]; under `Cc1cc(NC(=O)Nc2ccccc2F)ccc1Br`, 15.8 µM [falling, partial curve, poor fit]; under `O=C(N/N=C/c1cccc(NC(=O)c2ccc(Cl)cc2)c1)c1ccc(O)cc1`, 3.16 µM [falling, partial curve, poor fit]. Consider `COc1ccc(-c2nc3cc(C)ccn3c2NCc2ccc3c(c2)OCO3)cc1`, for which, under setting [1], the half-maximal activity concentration (AC50) was 0.1 µM [rising, full curve, poor fit].

Consider `Nc1nc(N)nc(-c2cc(O)ccc2O)n1`, for which the half-maximal activity concentration (AC50) by setting is: under setting [1], 8.2 µM [falling, partial curve, poor fit]; under setting [2], 5.8 µM [rising, partial curve, poor fit].

As for `COc1ccccc1N1CCN(C(=O)CN2C(=O)c3ccccc3S2(=O)=O)CC1`, the AC50 under setting [1] is 15.8 µM [rising, partial curve].

For the molecule `COc1cc(C(=O)Nc2ccccc2N2CCOCC2)ccc1OCC(=O)N1CCOCC1`, the half-maximal activity concentration (AC50) under setting [1] was 0.461 µM [rising, full curve, poor fit]. For the molecule `O=C(CSCc1ccccc1)NNC(=S)Nc1cccc(Cl)c1Cl`, the AC50 under setting [1] was 16.4 µM [falling, single point]. Same read-out and setting: under `COc1ccc(NC(=O)C23CCC(C)(C(=O)C2)C3(C)C)cc1` (stereo unspecified) stands 6.51 µM [rising, single point]; under `COc1ccc(CNCCSc2nnnn2C)cc1OC`, 29.1 µM [rising, single point]; under `Cc1ccnc2c(N3C(=O)C4C5c6ccccc6C(c6ccccc65)C4C3=O)cccc12` (stereo unspecified), 22.4 µM [falling, single point].

For `Cc1c(C(=O)OCCN2CCCCC2)oc2ccccc12`, under setting [1], the AC50 is 7.94 µM [rising, partial curve]. On the same count and under the same terms, the same measure for `CC(C)C(=O)NC(c1ccc([N+](=O)[O-])cc1)c1c(O)ccc2ccccc12` (stereo unspecified): 12.6 µM [falling, partial curve]; for `Cc1cccc(N)c1SC1CCCCC1O` (stereo unspecified): 14.6 µM [rising, partial curve, poor fit]; for `NC(N)=NN=C1c2ccccc2-c2ccccc21`: 3.98 µM [falling, full curve, poor fit].

Turning to `COc1ccccc1NC(=O)C(C)OC(=O)/C=C/c1ccc2ccccc2n1` (stereo unspecified), the concentration at half-maximal activity (AC50) under setting [1] is 23.1 µM [falling, partial curve, poor fit]. The same measure, in the same setting: under `O=c1nccc(N/N=C/c2ccccc2O)[nH]1` stands 14.1 µM [falling, single point]; under `CC(C)(C)n1nc2c(c1NC(=O)COc1ccc3ccccc3c1)CS(=O)C2` (stereo unspecified), 6.51 µM [falling, single point]. On to `COc1ccccc1N1CCN(C(=O)c2ccc3[nH]c4c(c3c2)CCCC4)CC1`, for which the AC50 under setting [1] was 8.2 µM [falling, partial curve].

In the case of `O=C(NCc1ccccc1)c1cc(-c2cccs2)on1`, under setting [1], the AC50 is 7.94 µM [falling, partial curve]. Same read-out and setting: the same measure for `COc1ccccc1Nc1cc(C(=O)NCCCN2CCOCC2)c2ccccc2n1`: 35.5 µM [falling, single point]; for `O=C(C1CC1)N1N=C(c2ccc(F)cc2)CC1(O)C(F)(F)F` (stereo unspecified): 35.5 µM [rising, single point]. For the molecule `CCN(CCn1cccn1)C(=O)CC1C(=O)NCCN1Cc1ccc(OC)c(OC)c1` (stereo unspecified), the concentration at half-maximal activity (AC50) under setting [1] is 14.1 µM [rising, single point]. As for `CN(c1ccccc1)S(=O)(=O)c1cc(C(=O)Nc2nc3ccccc3[nH]2)ccc1Cl`, the AC50 under setting [1] was 20.6 µM [falling, single point]. On the same count and under the same terms, under `CC1=N/C(=C\c2ccc([N+](=O)[O-])cc2)C(=O)N1c1ccc(Cl)cc1` stands 2.24 µM [falling, partial curve, poor fit]; under `CCCC(=O)Nc1ccc(-c2nc3ncccc3o2)cc1`, 15.8 µM [rising, partial curve, poor fit]. Still for that read-out and setting: under `O=C(/C=C\c1ccc2c(c1)OCO2)CC1(O)C(=O)Nc2ccccc21` (stereo unspecified) stands 35.5 µM [falling, single point]; under `O=C(CSc1nnnn1-c1ccccc1)Nc1ncc2c(n1)CC(c1ccccc1)CC2=O` (stereo unspecified), 4.11 µM [rising, single point].

Regarding `CCc1ccc(C(=O)c2cn(CC(=O)Nc3cccc(OC)c3)c3ccc(OC)cc3c2=O)cc1`, under setting [1], the AC50 was 20.6 µM [falling, single point]. Turning to `CCOC(=O)c1cnn2c(C)cc(-c3ccc(F)cc3)nc12`, the AC50 under setting [1] is 1.41 µM [rising, partial curve, poor fit]. Still for that read-out and setting: under `COc1ccccc1N1CCN(c2ncnc3c2cnn3-c2cc(Cl)ccc2C)CC1` stands 5.62 µM [falling, partial curve, poor fit].
